Data reported in paper PMC7105294.
Results are given in words; binding and its absence hold for the method and conditions named. Some entries that bind do so weakly or less than the wild type.

Protein sequences, listed by entry. Tags and fused reporters are not part of them. Residues count along the entry.
UniProt P03211, residues 441-619: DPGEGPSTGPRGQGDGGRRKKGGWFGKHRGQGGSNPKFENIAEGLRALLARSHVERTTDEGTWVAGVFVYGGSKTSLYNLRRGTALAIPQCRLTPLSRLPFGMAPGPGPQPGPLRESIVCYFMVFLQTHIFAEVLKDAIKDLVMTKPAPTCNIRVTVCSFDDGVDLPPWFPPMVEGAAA
UniProt P61956: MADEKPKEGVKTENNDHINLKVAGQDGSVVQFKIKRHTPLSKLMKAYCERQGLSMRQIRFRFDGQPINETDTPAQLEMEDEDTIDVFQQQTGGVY

Target: GST-fusion wild type EBNA1 DBD (441-619) (Epstein-Barr virus) (UniProt P03211)
Test: pull-down; purified His-SUMO1/2 incubated with GST-fusion EBNA1 DBD proteins purified from E. coli, pulled down with Glutathione-sepharose beads; immunoblot; both purified

With “His-SUMO2 recombinant protein (from UniProt P61956 1-95)” the binding was “binds”.
